Results taken from paper PMC6949240.
These are yes or no findings as the source states them, for the method shown. In cells and extracts the contact can be indirect. Some results given as binding are weak or reduced against the parent protein; the word gives no strength.

Molecular target: APE1 (apurinic/apyrimidinic endonuclease 1), detected in cells with an anti-APE1 antibody (human (endogenous in HeLa, JHH-6, A549)) (UniProt P27695)
Assay: proximity ligation; Duolink PLA in HeLa cells on glass coverslips with anti-APE1 and anti-SFPQ, anti-DHX9 or anti-hnRNPK antibodies; confocal microscopy

binding: binds
Substance: hnRNPK (heterogeneous nuclear ribonucleoprotein K) (from UniProt P61978 1-463)
